Earlier results as cited in paper PMC11597746 (Pharmaceutics, 2024).

Settings: patients taking lorlatinib compared to controls; cited from earlier work

## CC(C)(C(=O)O)c1ccc(C(O)CCCN2CCC(C(O)(c3ccccc3)c3ccccc3)CC2)cc1 (centres unmarked) [fexofenadine]
  decrease in AUC0–∞: 67%
  decrease in Cmax: 63%
